Measurements reported in patent publication US20250051283A1, “THERAPEUTIC COMPOUNDS AND METHODS” (priority 2023, published 2025).
Some entries share one result that the patent states for a list of compounds.

Test system: EV-D68 US/MO/14-18947
Assay: Secondary plaque reduction assay with EV-D68 US/MO/14-18947
Format: cell-based, Enterovirus D68
Settings: versus telaprevir
Procedure: Cell lines and viruses. Human rhabdomyosarcoma (R.D., ATCC, CCL-136) cells were maintained at 37° C. in a 5% CO2 atmosphere and cultured in Dulbecco's modified Eagle's medium (DMEM) supplemented with 10% fetal bovine serum (FBS) and 1% penicillin-streptomycin antibiotics. The following reagents were obtained through BEI Resources, NIAID, NIH: Human Enterovirus D68, US/MO/14-18949, NR-49130; Enterovirus D68, US/MO/14-18947, NR-49129; Enterovirus D68, US/IL/14-18952, NR-49131; Enterovirus D68, US/KY/14-18953, NR-49132; Enterovirus D68, US/IL/14-18956, NR-49133.
Antiviral assays. Cells for antiviral assays were seeded and grown overnight at 37° C. in a 5% CO2 atmosphere for ˜90% confluency the next day. For all infections, cells were washed with PBS containing magnesium and calcium and infected with virus diluted in DMEM with 2% FBS and 30 mM MgCl2. Viruses were incubated for at least 1 h at 33° C. in a 5% CO2 atmosphere, followed by the addition of compound as well as 1% penicillin-streptomycin. […] For cytopathic effect (CPE) assays, cells were stained with 66 µg/mL neutral red for 2 h and neutral red uptake was measured at absorbance 540 nm using a Multiskan FC Microplate Photometer (ThermoFisher Scientific). The EC50 and CC50 values were calculated from best-fit dose response curves using GraphPad Prism. […]

SMILES: CC(C)(C)C(NC(=O)CC12CC3CC(CC(C3)C1)C2)C(=O)N1CC2CCCC2C1C(=O)NC(C(=O)C(=O)NC1CC1)C1CCCCC1 [Jun11762, (1S,3aR,6aS)-2-((S)-2-(2-((3S,5S,7S)-adamantan-1-yl)acetamido)-3,3-dimethylbutanoyl)-N—((S)-1-cyclohexyl-3-(cyclopropylamino)-2,3-dioxopropyl)octahydrocyclopenta[c]pyrrole-1-carboxamide]
- fold improvement of plaque assay EC50 compared to telaprevir: 3 to 4 fold
